PubChem BioAssay AID504764 | Drosophila RNAi Screening Center – 2011
The screen tested about 22,000 reagents; below is a random part of those that have a named target and a result. In the full data, 403 (1.9%) got an active call. 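Unnormalised raw counts per well; ratio z-scores behind the hit calls and whether each hit raises or lowers signal are not deposited.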 A plus sign joins genes that one reagent is predicted to hit. Reagent sequences are not shown. The record does not give: the amount of reagent.

Purpose: 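Genome-wide screen for regulators of Notch-driven gene expression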 (primary screen)
Cell system: Drosophila Kc167 cells
Reagent: long dsRNA against Drosophila genes
Time to read-out: about 5 days (4 days dsRNA, then 24 h after transfection)
Conditions: transfection of constitutively active membrane-tethered Notch lacking the extracellular domain, read 24 h later
Measurement: 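Firefly luciferase from an E(spl)m3 reporter with active Notch, plus control-promoter and uninduced reporter wells for normalisation; unnormalised counts, duplicate wells a and b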
Direction: induced reporter light, run 1, well a and induced reporter light, run 1, well b: higher = more light from the Notch target reporter with active Notch; control promoter light, run 1, well a and control promoter light, run 1, well b: higher = more light from the viral control promoter (cell number, transfection, viability); uninduced reporter light, run 1, well a: higher = more light from the Notch target reporter without active Notch
Active means: 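Hit if the duplicate-averaged log2 ratio of induced to control-promoter light gives a plate-wise z beyond ±2, or induced to uninduced beyond ±1.8; weak-control or discordant-duplicate wells dropped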
Calls: active = modifier hit (raised or lowered Notch signal); inactive = not a hit

no.	gene	PubChem SID	induced reporter light, run 1, well a	induced reporter light, run 1, well b	control promoter light, run 1, well a	control promoter light, run 1, well b	uninduced reporter light, run 1, well a	activity call
1	Cpr65Eb (GeneID 38774)	SID104190818	1.93e5	1.65e5	3.01e5	2.78e5	12292	inactive
2	Ipo9 (GeneID 41367)	SID104196605	41705	44890	42815	35000	2995	inactive
3	Frq1 (GeneID 32797)	SID104199753	43575	28815	28835	25090	4228	inactive
4	Dgp-1 (GeneID 37080)	SID104187192	1.31e5	85485	1.04e5	99380	10055	inactive
5	CG7920 (GeneID 43562)	SID104196138	1.57e5	1.78e5	2.24e5	2.02e5	11590	inactive
6	CG17085 (retired record) (GeneID 34501)	SID104182357	1.19e5	1.56e5	73890	1.15e5	15600	inactive
7	CG17085 (retired record) (GeneID 34501)	SID104182358	99990	1.24e5	66470	1.05e5	13665	inactive
8	Alp2 (GeneID 37539)	SID104184146	72115	42060	49350	66780	3350	inactive
9	CG31516 (GeneID 318776)	SID104191786	2.46e5	2.47e5	3.20e5	3.29e5	19455	inactive
10	Rbf (GeneID 31027)	SID104198496	1.80e5	1.77e5	2.27e5	2.29e5	12775	inactive
11	RpS10b (GeneID 32953)	SID104199353	94955	84640	1.35e5	1.83e5	10780	active
12	Oatp26F (GeneID 33927)	SID104181941	1.37e5	1.28e5	1.82e5	1.30e5	7875	inactive
13	Oatp26F (GeneID 33927)	SID104182064	2.03e5	1.63e5	2.50e5	1.88e5	14538	inactive
14	Oatp26F (GeneID 33927)	SID104182487	2.08e5	1.60e5	2.46e5	2.09e5	12040	inactive
15	CG13392 (GeneID 34157)	SID104182054	1.44e5	1.80e5	84965	97925	19238	inactive
16	MED7 (GeneID 41288)	SID104195851	46185	44145	47780	37195	3255	inactive
17	CG14442 (GeneID 31609)	SID104197727	53325	45640	51235	54215	7220	inactive
18	Oxp (GeneID 37002)	SID104186504	1.02e5	85360	1.07e5	1.29e5	9695	inactive
19	CG30275 (GeneID 246522)	SID104183955	1.98e5	2.13e5	2.14e5	1.98e5	15978	inactive
20	TpnC41C (GeneID 35473)	SID104184708	1.84e5	1.47e5	1.39e5	1.49e5	9800	inactive
21	PpD5 (GeneID 44148)	SID104184433	49640	40870	59760	52715	4040	inactive
22	Cap-D3 + tomb	SID104182139	1.88e5	1.55e5	2.39e5	1.59e5	12420	inactive
23	fd3F + CG42499 (retired record)	SID104197952	1.78e5	1.83e5	3.97e5	3.60e5	12865	inactive
24	fd3F + CG42499 (retired record)	SID104197953	1.54e5	1.63e5	3.06e5	3.26e5	13800	inactive
25	CG13482 (GeneID 39577)	SID104189816	1.71e5	2.06e5	87340	1.16e5	9865	inactive
26	CG17996 + Tsen2	SID104182442	1.21e5	1.18e5	1.57e5	1.62e5	10940	inactive
27	Coq6 (GeneID 33777)	SID104182832	1.66e5	1.45e5	1.31e5	1.33e5	15025	inactive
28	rumi (GeneID 326122)	SID104194969	1.38e5	1.26e5	1.60e5	1.72e5	14955	inactive
29	CG34049 (GeneID 3885620)	SID104179896	1.34e5	1.15e5	1.45e5	1.77e5	7115	inactive
30	jeb (GeneID 36295)	SID104186097	85380	93130	1.52e5	1.43e5	10745	inactive
31	jeb (GeneID 36295)	SID104186099	79000	93030	1.46e5	1.55e5	11435	active
32	CG4860 (GeneID 41480)	SID104195456	1.45e5	1.33e5	1.02e5	1.14e5	10620	inactive
33	CG10584 (GeneID 40324)	SID104191416	1.55e5	1.51e5	1.25e5	1.24e5	8455	inactive
34	Osi18 (GeneID 40775)	SID104191973	66260	77955	75810	72820	5420	inactive
35	CG42288 (GeneID 36559)	SID104186173	82710	96925	1.31e5	1.19e5	8785	inactive
36	CG42306 + Gint3	SID104186726	60720	76245	1.01e5	98835	4510	inactive
37	CG17124 (GeneID 34485)	SID104182372	1.25e5	1.34e5	69185	94650	14920	inactive
38	U2A (GeneID 35713)	SID104186237	1.88e5	2.02e5	2.51e5	2.10e5	14775	inactive
39	net (GeneID 45339)	SID104180101	2.06e5	1.66e5	1.31e5	99345	12990	inactive
40	ndl (GeneID 38738)	SID104191166	2.08e5	2.12e5	2.48e5	2.57e5	10750	inactive
41	Lrp4 (GeneID 32552)	SID104199910	1.22e5	1.32e5	1.60e5	1.42e5	8135	inactive
42	Hsp23 (GeneID 39077)	SID104190980	93480	75830	74370	26780	9375	inactive
43	CG3919 (GeneID 39582)	SID104190181	1.43e5	1.80e5	1.18e5	1.47e5	11800	inactive
44	CG9689 (GeneID 31922)	SID104198232	1.89e5	2.07e5	2.21e5	2.12e5	13500	inactive
45	CG31661 (GeneID 33330)	SID104180088	1.21e5	1.06e5	1.25e5	95480	8970	inactive
46	Pex19 (GeneID 34630)	SID104182631	2.07e5	1.99e5	1.55e5	1.69e5	18095	inactive
47	CG13282 (GeneID 35019)	SID104182046	1.14e5	1.24e5	1.14e5	1.42e5	8645	inactive
48	pug (GeneID 41279)	SID104196828	98670	92675	95995	67075	5020	inactive
49	CG5068 (GeneID 39032)	SID104190268	1.21e5	1.14e5	66890	25755	10932	inactive
50	CG7706 (GeneID 42244)	SID104196087	2.61e5	3.46e5	3.05e5	4.17e5	21420	inactive
51	CG11566 (retired record) + stg1	SID104200265	4835	6325	7635	8035	5530	inactive
52	CG11566 (retired record) + stg1	SID104200273	99590	96640	1.11e5	1.37e5	9960	inactive
53	CG11566 (retired record) + stg1	SID104200274	84080	84245	1.14e5	92235	10030	inactive
54	CG11566 (retired record) + stg1	SID104200275	1.07e5	1.12e5	1.11e5	1.08e5	11160	inactive
55	loj (GeneID 38698)	SID104189583	1.17e5	1.07e5	73100	37435	10950	inactive
56	CG3902 (GeneID 40059)	SID104190179	1.66e5	1.74e5	2.22e5	1.62e5	12095	inactive
57	Cpr11A (GeneID 32198)	SID104199653	47260	44775	53250	50220	4300	inactive
58	CG7857 (GeneID 39671)	SID104190717	1.87e5	1.95e5	2.06e5	2.33e5	8315	inactive
59	CG6574 (GeneID 41308)	SID104195862	35185	37225	42175	29130	1980	inactive
60	CG42505 + CG42504 + CG31358	SID104195027	1.53e5	1.14e5	89130	77010	8475	inactive
61	CG42505 + CG42504 + CG31358	SID104195100	2.00e5	2.14e5	3.80e5	3.99e5	16030	inactive
62	CG42505 + CG42504 + CG31358	SID104195101	88285	59280	73335	60055	3878	inactive
63	Lrpprc2 (GeneID 31095)	SID104198397	2.02e5	1.75e5	2.15e5	2.33e5	14235	inactive
64	CG43066 (GeneID 37129)	SID104186719	89675	65675	95055	84340	7415	inactive

Targets listed so far whose target name begins with R or r:
gene	PubChem SID	induced reporter light, run 1, well a	induced reporter light, run 1, well b	control promoter light, run 1, well a	control promoter light, run 1, well b	uninduced reporter light, run 1, well a	activity call
Rbf (GeneID 31027)	SID104198496	1.80e5	1.77e5	2.27e5	2.29e5	12775	inactive
RpS10b (GeneID 32953)	SID104199353	94955	84640	1.35e5	1.83e5	10780	active
rumi (GeneID 326122)	SID104194969	1.38e5	1.26e5	1.60e5	1.72e5	14955	inactive
